{"source": "PubChem BioAssay AID1159584 (Peter MacCallum Cancer Centre, 2016)", "test": "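Genes that CDH1-null MCF10A cells selectively depend on to survive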 (primary screen)", "cell system": "human MCF10A breast epithelial cells, parental and CDH1-null", "reagents": "siRNA against human genes", "detection": "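ATP luminescence (CellTiter-Glo) viability per line relative to mean mock wells over all plates, and the ratio of CDH1-null to parental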", "scale": "CDH1-null / parental viability ratio: higher = CDH1-null cells survive relatively better than parental; CDH1-null viability vs mock: higher = more viable CDH1-null cells", "note": "Shown is one part, drawn at random, of about 18,000 deposited reagents. Not all columns of the deposit are shown. The record does not give: the amount of reagent, the time to read-out."}
{"Target gene":"TRIM38","CDH1-null / parental viability ratio":0.96,"CDH1-null viability vs mock (fraction of mock)":0.48}
{"Target gene":"PPIL4","CDH1-null / parental viability ratio":1.02,"CDH1-null viability vs mock (fraction of mock)":0.94}
{"Target gene":"GJA5","CDH1-null / parental viability ratio":1.11,"CDH1-null viability vs mock (fraction of mock)":1.2}
{"Target gene":"KIF1B","CDH1-null / parental viability ratio":1.31,"CDH1-null viability vs mock (fraction of mock)":1.18}
{"Target gene":"GLI4","CDH1-null / parental viability ratio":1.75,"CDH1-null viability vs mock (fraction of mock)":0.77}
{"Target gene":"ATP13A3","CDH1-null / parental viability ratio":0.96,"CDH1-null viability vs mock (fraction of mock)":0.86}
{"Target gene":"CTTNBP2","CDH1-null / parental viability ratio":0.77,"CDH1-null viability vs mock (fraction of mock)":0.64}
{"Target gene":"IL25","CDH1-null / parental viability ratio":0.68,"CDH1-null viability vs mock (fraction of mock)":0.52}
{"Target gene":"LEMD1","CDH1-null / parental viability ratio":1.11,"CDH1-null viability vs mock (fraction of mock)":0.98}
{"Target gene":"SNRPD2","CDH1-null / parental viability ratio":1.3,"CDH1-null viability vs mock (fraction of mock)":0.3}
{"Target gene":"CLUL1","CDH1-null / parental viability ratio":0.93,"CDH1-null viability vs mock (fraction of mock)":0.86}
{"Target gene":"DOCK9","CDH1-null / parental viability ratio":0.98,"CDH1-null viability vs mock (fraction of mock)":0.8}

2 entries from above, reformatted:
Target gene | CDH1-null / parental viability ratio | CDH1-null viability vs mock (fraction of mock)
PPIL4 | 1.02 | 0.94
GJA5 | 1.11 | 1.2

The results go on.
{"Target gene":"WDR20","CDH1-null / parental viability ratio":1.11,"CDH1-null viability vs mock (fraction of mock)":0.71}
{"Target gene":"FAM217A","CDH1-null / parental viability ratio":1.19,"CDH1-null viability vs mock (fraction of mock)":0.7}
{"Target gene":"H2AB2","CDH1-null / parental viability ratio":0.98,"CDH1-null viability vs mock (fraction of mock)":0.86}
{"Target gene":"TMEM127","CDH1-null / parental viability ratio":0.84,"CDH1-null viability vs mock (fraction of mock)":0.42}
{"Target gene":"KRTAP13-2","CDH1-null / parental viability ratio":0.86,"CDH1-null viability vs mock (fraction of mock)":0.62}
{"Target gene":"BRF1","CDH1-null / parental viability ratio":1.03,"CDH1-null viability vs mock (fraction of mock)":0.7}
{"Target gene":"POU4F1","CDH1-null / parental viability ratio":1.4,"CDH1-null viability vs mock (fraction of mock)":0.8}
{"Target gene":"SMAD7","CDH1-null / parental viability ratio":1.14,"CDH1-null viability vs mock (fraction of mock)":0.92}
{"Target gene":"EMC9","CDH1-null / parental viability ratio":1.08,"CDH1-null viability vs mock (fraction of mock)":0.83}
{"Target gene":"RNASE11","CDH1-null / parental viability ratio":1.09,"CDH1-null viability vs mock (fraction of mock)":0.59}
{"Target gene":"PDCD5","CDH1-null / parental viability ratio":1.23,"CDH1-null viability vs mock (fraction of mock)":0.76}
{"Target gene":"MLF1","CDH1-null / parental viability ratio":0.67,"CDH1-null viability vs mock (fraction of mock)":0.56}
{"Target gene":"MYEOV","CDH1-null / parental viability ratio":1.46,"CDH1-null viability vs mock (fraction of mock)":0.7}
{"Target gene":"EXOSC6","CDH1-null / parental viability ratio":0.8,"CDH1-null viability vs mock (fraction of mock)":0.48}
{"Target gene":"BEX4","CDH1-null / parental viability ratio":0.88,"CDH1-null viability vs mock (fraction of mock)":0.76}
{"Target gene":"GPHB5","CDH1-null / parental viability ratio":1.12,"CDH1-null viability vs mock (fraction of mock)":0.99}
{"Target gene":"SLC33A2","CDH1-null / parental viability ratio":0.89,"CDH1-null viability vs mock (fraction of mock)":0.68}
{"Target gene":"SLC25A23","CDH1-null / parental viability ratio":1.12,"CDH1-null viability vs mock (fraction of mock)":1.16}
{"Target gene":"TMED6","CDH1-null / parental viability ratio":1.26,"CDH1-null viability vs mock (fraction of mock)":1.01}
{"Target gene":"UBA3","CDH1-null / parental viability ratio":1.1,"CDH1-null viability vs mock (fraction of mock)":0.99}
{"Target gene":"SLC38A6","CDH1-null / parental viability ratio":1.38,"CDH1-null viability vs mock (fraction of mock)":1.05}
{"Target gene":"ALPL","CDH1-null / parental viability ratio":1.56,"CDH1-null viability vs mock (fraction of mock)":0.7}
{"Target gene":"ABI1","CDH1-null / parental viability ratio":1.11,"CDH1-null viability vs mock (fraction of mock)":0.4}
